No constants are given. Whether binding was seen depends on the method and setting. Binding seen in cells or lysates may run through a third protein. Here binding means that the protein was enriched with, or labelled near, the bait; the list need not be complete. Sequences can lack the tags named with a protein.
T1: recombinant human GST-WBP2 protein (WW domain-binding protein 2) (human) (UniProt Q969T9)
T1 sequence: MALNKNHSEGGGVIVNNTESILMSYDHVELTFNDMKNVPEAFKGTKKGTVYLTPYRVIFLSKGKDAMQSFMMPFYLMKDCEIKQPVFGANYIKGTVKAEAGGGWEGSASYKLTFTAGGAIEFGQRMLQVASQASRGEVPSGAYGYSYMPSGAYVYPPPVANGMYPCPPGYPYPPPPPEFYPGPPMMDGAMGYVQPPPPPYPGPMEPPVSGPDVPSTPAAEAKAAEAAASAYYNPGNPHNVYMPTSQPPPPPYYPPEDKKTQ

Amino acid sequences for entries named in this document (tags omitted). A change or cut given only in a name is not applied to a line headed by its entry. Chains listed by the source or under a name are the forms on record and can include a tag or linker.
UniProt P08670: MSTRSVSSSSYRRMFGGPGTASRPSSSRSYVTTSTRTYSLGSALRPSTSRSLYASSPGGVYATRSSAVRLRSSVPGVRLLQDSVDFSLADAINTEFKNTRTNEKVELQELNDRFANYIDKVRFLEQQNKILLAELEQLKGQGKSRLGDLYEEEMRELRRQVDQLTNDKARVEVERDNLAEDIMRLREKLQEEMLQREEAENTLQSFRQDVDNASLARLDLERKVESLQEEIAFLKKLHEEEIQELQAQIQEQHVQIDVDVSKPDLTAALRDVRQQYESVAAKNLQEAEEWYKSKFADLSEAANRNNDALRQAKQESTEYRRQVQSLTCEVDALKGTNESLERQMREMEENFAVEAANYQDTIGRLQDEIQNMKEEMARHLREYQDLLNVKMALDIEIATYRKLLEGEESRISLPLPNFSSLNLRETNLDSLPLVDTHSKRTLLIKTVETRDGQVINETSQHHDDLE
neural precursor cell expressed developmentally down-regulated protein 4 (NEDD4), endogenous in U251 lysate (P46934-4, form named): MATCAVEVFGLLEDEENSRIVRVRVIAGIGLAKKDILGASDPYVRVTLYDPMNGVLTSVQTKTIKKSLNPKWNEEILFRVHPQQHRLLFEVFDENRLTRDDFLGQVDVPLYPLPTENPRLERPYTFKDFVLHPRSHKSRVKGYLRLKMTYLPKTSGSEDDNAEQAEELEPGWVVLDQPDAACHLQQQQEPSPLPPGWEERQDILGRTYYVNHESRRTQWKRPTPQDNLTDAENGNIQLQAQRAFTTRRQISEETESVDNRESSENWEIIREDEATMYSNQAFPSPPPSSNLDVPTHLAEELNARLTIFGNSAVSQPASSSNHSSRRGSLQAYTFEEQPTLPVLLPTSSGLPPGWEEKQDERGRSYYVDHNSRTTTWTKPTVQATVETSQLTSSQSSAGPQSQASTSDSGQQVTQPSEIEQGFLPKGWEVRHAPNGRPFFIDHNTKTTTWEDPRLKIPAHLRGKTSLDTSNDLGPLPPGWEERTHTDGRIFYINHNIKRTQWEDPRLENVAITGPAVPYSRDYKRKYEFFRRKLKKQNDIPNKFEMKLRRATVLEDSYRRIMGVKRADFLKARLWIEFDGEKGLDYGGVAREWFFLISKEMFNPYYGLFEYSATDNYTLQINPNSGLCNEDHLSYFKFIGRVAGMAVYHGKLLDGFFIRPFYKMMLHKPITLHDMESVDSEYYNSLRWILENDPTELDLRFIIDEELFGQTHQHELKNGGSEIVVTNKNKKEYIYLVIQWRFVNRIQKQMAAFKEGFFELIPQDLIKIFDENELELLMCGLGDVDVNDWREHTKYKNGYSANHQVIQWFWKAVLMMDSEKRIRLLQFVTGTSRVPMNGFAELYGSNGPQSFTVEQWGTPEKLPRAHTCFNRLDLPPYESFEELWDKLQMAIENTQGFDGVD
UniProt P07437: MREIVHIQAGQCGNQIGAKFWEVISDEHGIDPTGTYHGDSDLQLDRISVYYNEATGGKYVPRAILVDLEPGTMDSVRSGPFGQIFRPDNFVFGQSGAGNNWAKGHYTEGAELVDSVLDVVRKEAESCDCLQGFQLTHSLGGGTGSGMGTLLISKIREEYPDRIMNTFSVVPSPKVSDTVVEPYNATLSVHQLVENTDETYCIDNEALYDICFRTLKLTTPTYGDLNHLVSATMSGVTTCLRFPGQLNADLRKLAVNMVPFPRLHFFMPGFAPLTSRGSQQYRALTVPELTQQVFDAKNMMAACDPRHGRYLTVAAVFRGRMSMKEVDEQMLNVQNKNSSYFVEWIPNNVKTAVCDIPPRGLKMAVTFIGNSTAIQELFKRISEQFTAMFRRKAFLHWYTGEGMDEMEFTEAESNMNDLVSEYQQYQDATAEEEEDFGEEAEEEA
UniProt P50552: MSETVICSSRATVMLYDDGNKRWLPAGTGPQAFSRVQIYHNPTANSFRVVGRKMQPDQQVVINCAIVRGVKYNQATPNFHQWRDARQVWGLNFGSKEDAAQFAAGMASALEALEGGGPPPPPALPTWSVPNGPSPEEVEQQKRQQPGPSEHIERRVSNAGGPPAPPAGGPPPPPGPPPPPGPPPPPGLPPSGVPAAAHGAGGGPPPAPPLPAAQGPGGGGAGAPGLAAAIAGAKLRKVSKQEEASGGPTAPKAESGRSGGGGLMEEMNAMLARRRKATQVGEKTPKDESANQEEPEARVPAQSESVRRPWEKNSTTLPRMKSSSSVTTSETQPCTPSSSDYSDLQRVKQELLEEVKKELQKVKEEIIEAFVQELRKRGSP
UniProt P06733: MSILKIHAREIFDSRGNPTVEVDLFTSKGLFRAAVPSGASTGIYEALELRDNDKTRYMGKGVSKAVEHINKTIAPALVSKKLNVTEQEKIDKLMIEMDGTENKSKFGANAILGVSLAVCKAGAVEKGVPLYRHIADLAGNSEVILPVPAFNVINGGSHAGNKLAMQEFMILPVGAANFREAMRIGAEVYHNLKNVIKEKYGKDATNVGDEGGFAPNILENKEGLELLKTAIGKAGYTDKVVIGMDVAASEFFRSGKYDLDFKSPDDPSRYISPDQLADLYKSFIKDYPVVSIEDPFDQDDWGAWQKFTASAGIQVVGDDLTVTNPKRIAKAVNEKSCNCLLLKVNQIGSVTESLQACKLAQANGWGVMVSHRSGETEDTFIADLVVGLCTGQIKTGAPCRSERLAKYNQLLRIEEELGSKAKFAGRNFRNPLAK
ITCH, endogenous in U251 lysate (Q96J02-2, form named): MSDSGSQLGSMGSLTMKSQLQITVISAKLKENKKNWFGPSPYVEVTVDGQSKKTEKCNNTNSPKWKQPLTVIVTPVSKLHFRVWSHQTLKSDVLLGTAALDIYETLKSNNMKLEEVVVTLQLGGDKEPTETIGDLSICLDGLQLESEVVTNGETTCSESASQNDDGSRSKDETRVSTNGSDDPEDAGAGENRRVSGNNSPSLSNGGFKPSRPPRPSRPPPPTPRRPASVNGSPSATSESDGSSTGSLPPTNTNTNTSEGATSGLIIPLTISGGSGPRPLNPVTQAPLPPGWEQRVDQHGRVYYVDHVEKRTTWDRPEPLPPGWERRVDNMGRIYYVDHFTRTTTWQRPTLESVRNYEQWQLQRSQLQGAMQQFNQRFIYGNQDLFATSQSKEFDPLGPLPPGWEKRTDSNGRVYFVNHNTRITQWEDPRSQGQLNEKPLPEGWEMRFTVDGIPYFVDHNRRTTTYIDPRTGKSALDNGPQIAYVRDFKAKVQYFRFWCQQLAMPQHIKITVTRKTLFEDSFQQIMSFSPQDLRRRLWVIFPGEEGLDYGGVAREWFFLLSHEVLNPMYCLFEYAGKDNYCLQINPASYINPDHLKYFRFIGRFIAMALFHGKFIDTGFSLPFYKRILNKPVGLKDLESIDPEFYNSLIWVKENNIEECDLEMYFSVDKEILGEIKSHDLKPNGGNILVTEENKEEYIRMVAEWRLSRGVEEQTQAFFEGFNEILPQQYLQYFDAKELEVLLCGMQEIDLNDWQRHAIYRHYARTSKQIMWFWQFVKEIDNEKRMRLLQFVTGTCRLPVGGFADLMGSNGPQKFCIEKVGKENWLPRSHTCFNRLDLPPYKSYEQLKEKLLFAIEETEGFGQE
GFAP, endogenous in U251 lysate (P14136-3, form named): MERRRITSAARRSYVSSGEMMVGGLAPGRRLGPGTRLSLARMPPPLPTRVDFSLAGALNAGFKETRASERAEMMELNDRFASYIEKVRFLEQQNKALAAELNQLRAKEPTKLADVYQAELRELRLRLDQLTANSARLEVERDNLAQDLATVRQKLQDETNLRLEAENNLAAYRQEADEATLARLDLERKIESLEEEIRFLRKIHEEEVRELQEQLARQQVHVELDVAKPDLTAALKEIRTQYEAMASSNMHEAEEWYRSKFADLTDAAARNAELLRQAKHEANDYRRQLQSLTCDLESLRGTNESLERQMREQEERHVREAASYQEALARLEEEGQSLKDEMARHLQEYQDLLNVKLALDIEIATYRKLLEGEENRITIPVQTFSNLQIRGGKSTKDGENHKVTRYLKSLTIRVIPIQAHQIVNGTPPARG

B1: Homer protein homolog 3 (Homer3), endogenous in U251 lysate (protein, UniProt Q9NSC5 1-361)
chain: MSTAREQPIFSTRAHVFQIDPATKRNWIPAGKHALTVSYFYDATRNVYRIISIGGAKAIINSTVTPNMTFTKTSQKFGQWADSRANTVYGLGFASEQHLTQFAEKFQEVKEAARLAREKSQDGGELTSPALGLASHQVPPSPLVSANGPGEEKLFRSQSADAPGPTERERLKKMLSEGSVGEVQWEAEFFALQDSNNKLAGALREANAAAAQWRQQLEAQRAEAERLRQRVAELEAQAASEVTPTGEKEGLGQGQSLEQLEALVQTKDQEIQTLKSQTGGPREALEAAEREETQQKVQDLETRNAELEHQLRAMERSLEEARAERERARAEVGRAAQLLDVSLFELSELREGLARLAEAAP

biological target: T1, recombinant human GST-WBP2 protein (WW domain-binding protein 2) (human); experiment: affinity purification with mass spectrometry; GST-WBP2 immobilized on glutathione resin, incubated with U251 lysates (30 mg, overnight, 4 °C), washed three times with lysis buffer; SDS-PAGE, trypsin digestion, LC-MS/MS; GST alone as negative control; only the target purified

binding	Molecule
binds	VIM, endogenous in U251 lysate (from UniProt P08670 1-466)
binds	neural precursor cell expressed developmentally down-regulated protein 4 (NEDD4), endogenous in U251 lysate (from UniProt P46934-4 1-900) (enzyme)
binds	Tubulinβ, endogenous in U251 lysate (from UniProt P07437 1-444)
binds	VASP, endogenous in U251 lysate (from UniProt P50552 1-380)
binds	α-enolase (ENO1), endogenous in U251 lysate (from UniProt P06733 1-434) (enzyme)
binds	ITCH, endogenous in U251 lysate (from UniProt Q96J02-2 1-862) (enzyme)
binds	GFAP, endogenous in U251 lysate (from UniProt P14136-3 1-431)
binds	B1
